These are yes or no findings as the source states them, for the method shown. Binding seen in cells or lysates may run through a third protein. Some results given as binding are weak or reduced against the parent protein; the word gives no strength.

Sequences of proteins named here, by UniProt entry; tags and fusion partners are left off. A change or cut given only in a name is not applied to a line headed by its entry. A line that says so, or that is headed by a name, gives the form on record, which may keep a tag or linker.
UniProt O15027: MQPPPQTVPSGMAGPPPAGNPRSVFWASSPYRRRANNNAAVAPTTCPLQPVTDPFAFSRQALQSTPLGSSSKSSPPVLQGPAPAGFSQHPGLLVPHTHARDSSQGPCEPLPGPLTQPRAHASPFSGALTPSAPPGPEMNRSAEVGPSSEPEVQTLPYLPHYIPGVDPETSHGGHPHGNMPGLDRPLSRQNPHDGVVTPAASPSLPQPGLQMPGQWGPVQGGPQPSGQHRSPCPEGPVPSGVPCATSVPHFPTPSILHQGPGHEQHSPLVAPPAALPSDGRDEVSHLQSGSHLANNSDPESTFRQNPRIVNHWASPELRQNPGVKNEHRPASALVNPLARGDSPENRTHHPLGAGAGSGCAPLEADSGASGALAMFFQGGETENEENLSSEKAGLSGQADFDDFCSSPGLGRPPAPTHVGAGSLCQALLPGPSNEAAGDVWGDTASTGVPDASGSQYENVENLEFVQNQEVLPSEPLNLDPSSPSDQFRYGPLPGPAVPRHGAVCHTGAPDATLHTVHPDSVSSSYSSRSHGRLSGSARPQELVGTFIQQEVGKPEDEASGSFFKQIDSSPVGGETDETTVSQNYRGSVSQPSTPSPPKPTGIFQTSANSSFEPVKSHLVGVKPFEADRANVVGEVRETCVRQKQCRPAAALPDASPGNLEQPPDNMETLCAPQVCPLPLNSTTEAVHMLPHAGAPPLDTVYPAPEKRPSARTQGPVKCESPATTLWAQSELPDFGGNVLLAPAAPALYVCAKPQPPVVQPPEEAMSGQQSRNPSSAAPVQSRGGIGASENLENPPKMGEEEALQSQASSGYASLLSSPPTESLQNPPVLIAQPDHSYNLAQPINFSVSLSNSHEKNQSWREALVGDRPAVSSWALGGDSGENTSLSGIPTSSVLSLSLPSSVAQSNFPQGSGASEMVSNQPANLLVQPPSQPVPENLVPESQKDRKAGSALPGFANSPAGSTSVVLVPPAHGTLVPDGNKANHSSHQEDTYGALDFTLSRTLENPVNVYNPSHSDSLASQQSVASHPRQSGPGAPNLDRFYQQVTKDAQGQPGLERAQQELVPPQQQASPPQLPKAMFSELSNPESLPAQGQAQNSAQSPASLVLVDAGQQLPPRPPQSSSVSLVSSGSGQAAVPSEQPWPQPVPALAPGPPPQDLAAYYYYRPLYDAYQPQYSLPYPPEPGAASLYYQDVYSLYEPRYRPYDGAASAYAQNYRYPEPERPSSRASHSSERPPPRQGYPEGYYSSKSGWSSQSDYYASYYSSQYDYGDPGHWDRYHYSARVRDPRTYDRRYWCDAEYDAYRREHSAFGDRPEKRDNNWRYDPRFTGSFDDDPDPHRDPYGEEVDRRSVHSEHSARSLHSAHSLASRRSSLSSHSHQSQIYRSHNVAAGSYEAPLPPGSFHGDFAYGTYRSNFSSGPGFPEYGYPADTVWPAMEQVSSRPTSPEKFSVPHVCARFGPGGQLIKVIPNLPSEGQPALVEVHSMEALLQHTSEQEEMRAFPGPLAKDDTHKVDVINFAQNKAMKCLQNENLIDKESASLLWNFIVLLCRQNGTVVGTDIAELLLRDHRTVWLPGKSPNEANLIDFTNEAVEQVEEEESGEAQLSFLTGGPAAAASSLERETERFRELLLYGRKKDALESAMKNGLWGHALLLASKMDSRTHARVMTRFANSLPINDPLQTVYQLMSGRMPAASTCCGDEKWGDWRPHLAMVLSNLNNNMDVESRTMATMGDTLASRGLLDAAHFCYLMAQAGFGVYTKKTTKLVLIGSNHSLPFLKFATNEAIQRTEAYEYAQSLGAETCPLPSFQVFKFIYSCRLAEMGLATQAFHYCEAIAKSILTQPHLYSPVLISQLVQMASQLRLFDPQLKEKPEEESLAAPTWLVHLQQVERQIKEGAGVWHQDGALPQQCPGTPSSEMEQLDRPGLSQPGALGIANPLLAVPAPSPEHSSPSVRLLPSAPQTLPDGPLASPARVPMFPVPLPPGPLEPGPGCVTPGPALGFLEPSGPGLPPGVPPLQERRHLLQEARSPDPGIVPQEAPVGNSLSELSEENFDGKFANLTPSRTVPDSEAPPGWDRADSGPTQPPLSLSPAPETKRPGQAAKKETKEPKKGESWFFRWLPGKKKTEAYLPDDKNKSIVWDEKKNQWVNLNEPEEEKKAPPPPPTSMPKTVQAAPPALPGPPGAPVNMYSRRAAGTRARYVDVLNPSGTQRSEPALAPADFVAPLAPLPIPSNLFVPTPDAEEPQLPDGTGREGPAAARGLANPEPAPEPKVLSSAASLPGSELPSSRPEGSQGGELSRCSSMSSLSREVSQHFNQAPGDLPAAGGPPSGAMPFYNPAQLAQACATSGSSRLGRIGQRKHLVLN
UniProt Q9NSY1: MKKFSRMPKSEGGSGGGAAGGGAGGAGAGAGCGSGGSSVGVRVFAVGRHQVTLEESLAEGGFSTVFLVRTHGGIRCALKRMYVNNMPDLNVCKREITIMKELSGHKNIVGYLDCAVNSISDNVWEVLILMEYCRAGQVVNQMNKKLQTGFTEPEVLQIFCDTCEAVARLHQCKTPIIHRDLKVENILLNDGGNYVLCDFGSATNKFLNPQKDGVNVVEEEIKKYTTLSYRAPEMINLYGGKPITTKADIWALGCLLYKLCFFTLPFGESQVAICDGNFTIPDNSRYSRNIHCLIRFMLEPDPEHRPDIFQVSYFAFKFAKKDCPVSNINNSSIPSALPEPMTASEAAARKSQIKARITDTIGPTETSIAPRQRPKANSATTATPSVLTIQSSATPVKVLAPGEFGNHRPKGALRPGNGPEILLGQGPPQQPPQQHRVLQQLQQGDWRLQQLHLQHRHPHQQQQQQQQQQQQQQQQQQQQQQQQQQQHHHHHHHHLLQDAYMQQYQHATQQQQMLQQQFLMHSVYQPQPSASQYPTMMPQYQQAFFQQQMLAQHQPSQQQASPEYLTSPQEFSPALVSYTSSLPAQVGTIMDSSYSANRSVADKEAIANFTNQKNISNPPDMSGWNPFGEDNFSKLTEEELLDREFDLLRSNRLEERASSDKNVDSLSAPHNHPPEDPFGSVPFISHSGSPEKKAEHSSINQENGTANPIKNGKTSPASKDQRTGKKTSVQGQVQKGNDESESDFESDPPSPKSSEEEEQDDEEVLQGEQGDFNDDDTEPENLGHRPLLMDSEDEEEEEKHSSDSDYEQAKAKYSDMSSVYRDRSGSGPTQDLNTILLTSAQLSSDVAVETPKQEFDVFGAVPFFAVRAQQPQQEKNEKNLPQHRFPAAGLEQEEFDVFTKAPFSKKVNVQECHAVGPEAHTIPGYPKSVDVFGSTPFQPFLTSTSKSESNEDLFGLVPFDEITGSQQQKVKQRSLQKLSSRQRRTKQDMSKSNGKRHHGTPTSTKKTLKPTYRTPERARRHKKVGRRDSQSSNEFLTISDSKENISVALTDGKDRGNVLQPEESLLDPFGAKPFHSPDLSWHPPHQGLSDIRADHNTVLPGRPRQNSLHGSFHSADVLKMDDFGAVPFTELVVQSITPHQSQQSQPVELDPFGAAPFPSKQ
BMP2K-S (shorter splicing variant of bone morphogenetic protein 2-inducible kinase), non-tagged (Q9NSY1-2, form named): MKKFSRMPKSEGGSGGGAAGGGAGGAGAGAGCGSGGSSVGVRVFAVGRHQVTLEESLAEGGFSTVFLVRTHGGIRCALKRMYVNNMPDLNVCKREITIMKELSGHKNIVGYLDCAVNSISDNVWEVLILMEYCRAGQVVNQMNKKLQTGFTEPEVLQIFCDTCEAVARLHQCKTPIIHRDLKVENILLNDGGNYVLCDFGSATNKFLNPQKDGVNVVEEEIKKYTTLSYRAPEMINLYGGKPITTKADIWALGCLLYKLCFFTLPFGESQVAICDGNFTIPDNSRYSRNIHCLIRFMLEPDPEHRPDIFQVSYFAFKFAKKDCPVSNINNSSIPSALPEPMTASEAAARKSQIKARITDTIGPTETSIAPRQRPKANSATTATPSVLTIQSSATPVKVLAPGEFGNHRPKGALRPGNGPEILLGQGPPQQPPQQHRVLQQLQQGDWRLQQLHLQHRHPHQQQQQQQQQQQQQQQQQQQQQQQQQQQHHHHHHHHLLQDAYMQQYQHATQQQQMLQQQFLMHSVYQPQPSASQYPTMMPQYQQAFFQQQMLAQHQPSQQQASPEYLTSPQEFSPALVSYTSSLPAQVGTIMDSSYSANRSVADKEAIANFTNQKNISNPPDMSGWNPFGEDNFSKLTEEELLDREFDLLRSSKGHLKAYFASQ

Consider two substances from publication PMC7473771.

The experiment concerns the target EGFP-tagged SEC16A (human) (UniProt O15027). The experiment can be described thus: co-IP; HEK293 cells co-transfected with BMP2K-L or -S and EGFP only or EGFP-SEC16A; RIPA lysates; goat anti-GFP antibodies 1.5 hr at 4°C, Protein G-agarose; washes with 50 mM Hepes pH 7.5, 300 mM NaCl, 1% Triton X-100; western blotting. In general terms: Immunoblotting shows a protein as a band on a membrane.

As to “BMP2K-S (shorter splicing variant of bone morphogenetic protein 2-inducible kinase), non-tagged (from UniProt Q9NSY1-2 1-662)”, the binding entry is given as “binds”.
In the case of “BMP2K-L (longer splicing variant of bone morphogenetic protein 2-inducible kinase), non-tagged (from UniProt Q9NSY1 1-1161)” it was “binds”.
